Assay results reported in the supplement of paper PMC6411743.
± gives the standard deviation of the averaged measurements. The entries are a selection whose mix differs from that of the whole data set.

The chains behind the UniProt entries cited, without tags or fusion partners. Where a name states a change or a piece, a line headed by the entry shows the natural chain unless it says otherwise.
UniProt P50851: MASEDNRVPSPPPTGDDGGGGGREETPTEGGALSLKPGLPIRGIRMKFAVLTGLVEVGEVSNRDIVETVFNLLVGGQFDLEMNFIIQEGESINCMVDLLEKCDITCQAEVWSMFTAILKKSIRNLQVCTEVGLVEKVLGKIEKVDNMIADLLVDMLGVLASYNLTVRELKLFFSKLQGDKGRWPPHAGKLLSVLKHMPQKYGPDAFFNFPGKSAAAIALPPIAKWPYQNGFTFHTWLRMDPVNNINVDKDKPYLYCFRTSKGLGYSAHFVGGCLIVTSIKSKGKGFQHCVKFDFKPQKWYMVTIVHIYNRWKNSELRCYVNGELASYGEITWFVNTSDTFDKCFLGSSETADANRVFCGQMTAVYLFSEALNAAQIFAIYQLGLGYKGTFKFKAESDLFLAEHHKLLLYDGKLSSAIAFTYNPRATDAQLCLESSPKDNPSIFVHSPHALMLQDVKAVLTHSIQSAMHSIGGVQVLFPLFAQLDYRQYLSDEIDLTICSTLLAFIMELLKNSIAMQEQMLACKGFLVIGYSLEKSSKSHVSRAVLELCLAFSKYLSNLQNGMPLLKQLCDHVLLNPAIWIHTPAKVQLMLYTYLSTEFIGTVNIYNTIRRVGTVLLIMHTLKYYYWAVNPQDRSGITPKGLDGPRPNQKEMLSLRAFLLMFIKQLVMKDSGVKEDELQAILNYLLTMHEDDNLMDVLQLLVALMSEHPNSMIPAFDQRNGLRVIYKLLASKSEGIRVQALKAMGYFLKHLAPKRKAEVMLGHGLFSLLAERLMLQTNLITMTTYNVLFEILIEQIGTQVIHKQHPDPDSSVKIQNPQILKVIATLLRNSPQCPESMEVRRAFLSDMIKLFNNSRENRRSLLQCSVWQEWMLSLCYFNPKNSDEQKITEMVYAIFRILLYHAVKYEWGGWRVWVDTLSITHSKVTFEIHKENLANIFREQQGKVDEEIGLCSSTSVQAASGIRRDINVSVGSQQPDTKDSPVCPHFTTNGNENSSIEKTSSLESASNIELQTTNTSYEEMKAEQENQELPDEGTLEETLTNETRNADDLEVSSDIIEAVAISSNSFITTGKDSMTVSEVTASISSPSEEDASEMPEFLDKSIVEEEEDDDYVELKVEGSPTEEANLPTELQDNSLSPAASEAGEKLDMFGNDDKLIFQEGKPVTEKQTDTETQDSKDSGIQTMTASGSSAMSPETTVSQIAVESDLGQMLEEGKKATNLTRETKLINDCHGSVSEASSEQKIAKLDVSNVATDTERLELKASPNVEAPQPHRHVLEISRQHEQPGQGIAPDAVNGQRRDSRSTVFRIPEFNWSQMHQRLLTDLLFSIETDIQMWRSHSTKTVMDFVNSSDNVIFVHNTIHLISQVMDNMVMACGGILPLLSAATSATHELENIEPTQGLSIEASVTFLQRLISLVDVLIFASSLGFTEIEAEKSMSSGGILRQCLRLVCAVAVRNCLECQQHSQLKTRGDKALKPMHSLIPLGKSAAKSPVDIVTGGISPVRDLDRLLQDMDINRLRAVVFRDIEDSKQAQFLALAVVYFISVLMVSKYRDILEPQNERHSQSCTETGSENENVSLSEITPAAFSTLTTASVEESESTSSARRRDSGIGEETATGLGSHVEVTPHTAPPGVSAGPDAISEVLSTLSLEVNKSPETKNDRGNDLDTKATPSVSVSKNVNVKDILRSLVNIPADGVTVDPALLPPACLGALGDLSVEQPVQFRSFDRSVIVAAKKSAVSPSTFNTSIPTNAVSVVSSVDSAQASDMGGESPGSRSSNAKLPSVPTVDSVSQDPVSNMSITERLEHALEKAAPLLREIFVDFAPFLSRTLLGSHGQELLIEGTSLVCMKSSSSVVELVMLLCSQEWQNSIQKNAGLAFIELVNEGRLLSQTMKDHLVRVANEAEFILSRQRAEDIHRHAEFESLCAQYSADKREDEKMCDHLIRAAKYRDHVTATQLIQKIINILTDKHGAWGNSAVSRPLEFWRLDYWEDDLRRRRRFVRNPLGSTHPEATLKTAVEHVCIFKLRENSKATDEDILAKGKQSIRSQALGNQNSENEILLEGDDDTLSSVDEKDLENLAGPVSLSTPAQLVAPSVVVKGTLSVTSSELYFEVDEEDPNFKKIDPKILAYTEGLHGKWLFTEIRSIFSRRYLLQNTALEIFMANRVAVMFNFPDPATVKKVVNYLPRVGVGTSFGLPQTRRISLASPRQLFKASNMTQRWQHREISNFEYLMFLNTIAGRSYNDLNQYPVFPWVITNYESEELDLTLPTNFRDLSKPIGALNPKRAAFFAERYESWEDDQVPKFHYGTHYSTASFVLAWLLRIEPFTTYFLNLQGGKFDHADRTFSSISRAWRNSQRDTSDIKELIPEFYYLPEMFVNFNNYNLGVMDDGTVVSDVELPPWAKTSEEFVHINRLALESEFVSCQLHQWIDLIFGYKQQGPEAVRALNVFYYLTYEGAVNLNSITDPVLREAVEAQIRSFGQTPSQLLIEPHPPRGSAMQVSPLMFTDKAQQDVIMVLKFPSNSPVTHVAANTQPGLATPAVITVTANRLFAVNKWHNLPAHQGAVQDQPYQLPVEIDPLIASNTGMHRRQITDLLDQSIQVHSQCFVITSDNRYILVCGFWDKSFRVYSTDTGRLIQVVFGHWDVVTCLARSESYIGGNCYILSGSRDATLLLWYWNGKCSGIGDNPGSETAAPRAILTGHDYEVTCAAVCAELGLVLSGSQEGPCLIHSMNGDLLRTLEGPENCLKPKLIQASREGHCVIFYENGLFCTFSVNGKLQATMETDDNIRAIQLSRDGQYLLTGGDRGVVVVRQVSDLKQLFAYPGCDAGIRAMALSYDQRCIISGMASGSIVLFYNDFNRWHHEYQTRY
UniProt P40121: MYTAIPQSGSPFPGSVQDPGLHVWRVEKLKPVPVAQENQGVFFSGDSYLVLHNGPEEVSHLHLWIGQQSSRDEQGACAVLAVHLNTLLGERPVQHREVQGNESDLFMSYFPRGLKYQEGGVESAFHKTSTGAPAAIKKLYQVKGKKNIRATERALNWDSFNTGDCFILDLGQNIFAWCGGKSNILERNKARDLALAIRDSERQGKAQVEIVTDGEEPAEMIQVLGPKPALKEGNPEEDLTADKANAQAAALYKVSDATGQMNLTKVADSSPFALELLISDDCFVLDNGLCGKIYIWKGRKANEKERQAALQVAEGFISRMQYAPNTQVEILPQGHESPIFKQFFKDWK
UniProt P41743, whole entry: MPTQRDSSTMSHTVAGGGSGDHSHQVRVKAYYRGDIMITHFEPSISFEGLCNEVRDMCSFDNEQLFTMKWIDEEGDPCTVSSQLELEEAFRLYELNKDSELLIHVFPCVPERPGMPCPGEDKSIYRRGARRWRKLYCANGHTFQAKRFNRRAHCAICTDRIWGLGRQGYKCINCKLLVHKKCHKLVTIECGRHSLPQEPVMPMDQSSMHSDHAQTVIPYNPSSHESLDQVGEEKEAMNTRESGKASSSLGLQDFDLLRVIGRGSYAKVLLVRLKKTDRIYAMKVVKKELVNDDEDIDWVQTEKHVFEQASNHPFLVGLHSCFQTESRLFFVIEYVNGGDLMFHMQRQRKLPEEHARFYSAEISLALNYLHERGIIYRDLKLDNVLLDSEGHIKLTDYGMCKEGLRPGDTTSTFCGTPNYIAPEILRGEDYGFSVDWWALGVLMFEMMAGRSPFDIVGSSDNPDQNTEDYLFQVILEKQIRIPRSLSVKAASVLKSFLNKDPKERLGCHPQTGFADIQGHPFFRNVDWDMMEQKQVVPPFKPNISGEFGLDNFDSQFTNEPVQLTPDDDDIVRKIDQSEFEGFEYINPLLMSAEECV
UniProt P45974: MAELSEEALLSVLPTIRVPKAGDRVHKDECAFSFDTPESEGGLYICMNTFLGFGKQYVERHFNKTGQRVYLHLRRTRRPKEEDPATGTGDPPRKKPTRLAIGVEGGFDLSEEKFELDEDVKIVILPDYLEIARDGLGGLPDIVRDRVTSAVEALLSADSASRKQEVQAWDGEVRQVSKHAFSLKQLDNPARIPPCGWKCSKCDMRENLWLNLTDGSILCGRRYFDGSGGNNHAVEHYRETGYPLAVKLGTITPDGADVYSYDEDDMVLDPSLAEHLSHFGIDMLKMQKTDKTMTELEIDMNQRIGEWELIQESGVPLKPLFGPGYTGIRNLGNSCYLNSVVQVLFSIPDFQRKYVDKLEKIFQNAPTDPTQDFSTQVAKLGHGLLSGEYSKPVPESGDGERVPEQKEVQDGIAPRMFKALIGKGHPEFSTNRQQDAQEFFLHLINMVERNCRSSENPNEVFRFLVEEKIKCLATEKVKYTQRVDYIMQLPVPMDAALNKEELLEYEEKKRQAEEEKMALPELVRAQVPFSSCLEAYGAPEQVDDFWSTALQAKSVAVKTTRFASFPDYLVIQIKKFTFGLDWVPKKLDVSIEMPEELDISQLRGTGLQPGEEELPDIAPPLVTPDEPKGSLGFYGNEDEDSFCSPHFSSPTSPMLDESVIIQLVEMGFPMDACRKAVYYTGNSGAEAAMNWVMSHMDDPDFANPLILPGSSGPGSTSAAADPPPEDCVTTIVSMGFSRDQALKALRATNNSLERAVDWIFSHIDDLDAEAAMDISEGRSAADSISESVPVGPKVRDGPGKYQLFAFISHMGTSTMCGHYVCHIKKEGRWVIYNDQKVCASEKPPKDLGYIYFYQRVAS
UniProt P48506: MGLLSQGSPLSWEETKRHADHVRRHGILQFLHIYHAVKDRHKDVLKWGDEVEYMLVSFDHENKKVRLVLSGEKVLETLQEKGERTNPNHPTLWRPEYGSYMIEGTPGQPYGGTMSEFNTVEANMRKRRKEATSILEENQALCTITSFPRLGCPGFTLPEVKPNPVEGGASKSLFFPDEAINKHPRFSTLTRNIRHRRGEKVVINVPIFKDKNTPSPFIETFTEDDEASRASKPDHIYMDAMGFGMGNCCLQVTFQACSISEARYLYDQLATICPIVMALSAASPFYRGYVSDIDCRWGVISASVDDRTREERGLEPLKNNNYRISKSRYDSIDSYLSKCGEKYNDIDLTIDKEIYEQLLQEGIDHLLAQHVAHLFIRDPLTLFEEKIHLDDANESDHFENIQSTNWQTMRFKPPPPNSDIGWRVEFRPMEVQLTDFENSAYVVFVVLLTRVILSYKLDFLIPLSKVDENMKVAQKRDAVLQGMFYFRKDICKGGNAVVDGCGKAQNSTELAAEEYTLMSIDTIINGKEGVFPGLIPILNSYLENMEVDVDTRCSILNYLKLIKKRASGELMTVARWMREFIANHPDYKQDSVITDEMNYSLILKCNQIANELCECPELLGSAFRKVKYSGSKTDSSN
UniProt P41208: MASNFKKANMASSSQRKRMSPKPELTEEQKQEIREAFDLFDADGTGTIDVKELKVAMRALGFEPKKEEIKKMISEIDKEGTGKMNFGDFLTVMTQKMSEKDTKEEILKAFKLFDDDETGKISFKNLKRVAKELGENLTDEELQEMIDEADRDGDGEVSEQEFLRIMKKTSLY
UniProt P43034: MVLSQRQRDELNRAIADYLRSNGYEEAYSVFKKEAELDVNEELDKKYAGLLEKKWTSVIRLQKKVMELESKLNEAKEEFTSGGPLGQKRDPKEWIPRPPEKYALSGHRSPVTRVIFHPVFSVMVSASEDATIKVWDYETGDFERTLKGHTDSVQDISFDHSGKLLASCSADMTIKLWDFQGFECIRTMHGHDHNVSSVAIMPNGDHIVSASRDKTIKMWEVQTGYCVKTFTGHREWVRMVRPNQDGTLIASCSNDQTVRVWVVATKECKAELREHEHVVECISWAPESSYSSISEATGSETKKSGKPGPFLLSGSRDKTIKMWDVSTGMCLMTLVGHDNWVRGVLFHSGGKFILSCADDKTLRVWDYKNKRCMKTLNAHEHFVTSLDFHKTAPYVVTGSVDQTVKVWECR
UniProt P42773: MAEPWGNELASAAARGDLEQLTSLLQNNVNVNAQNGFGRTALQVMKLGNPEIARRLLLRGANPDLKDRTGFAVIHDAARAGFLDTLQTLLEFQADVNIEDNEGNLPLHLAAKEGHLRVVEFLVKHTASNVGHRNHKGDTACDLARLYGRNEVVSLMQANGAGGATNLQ
UniProt P36551: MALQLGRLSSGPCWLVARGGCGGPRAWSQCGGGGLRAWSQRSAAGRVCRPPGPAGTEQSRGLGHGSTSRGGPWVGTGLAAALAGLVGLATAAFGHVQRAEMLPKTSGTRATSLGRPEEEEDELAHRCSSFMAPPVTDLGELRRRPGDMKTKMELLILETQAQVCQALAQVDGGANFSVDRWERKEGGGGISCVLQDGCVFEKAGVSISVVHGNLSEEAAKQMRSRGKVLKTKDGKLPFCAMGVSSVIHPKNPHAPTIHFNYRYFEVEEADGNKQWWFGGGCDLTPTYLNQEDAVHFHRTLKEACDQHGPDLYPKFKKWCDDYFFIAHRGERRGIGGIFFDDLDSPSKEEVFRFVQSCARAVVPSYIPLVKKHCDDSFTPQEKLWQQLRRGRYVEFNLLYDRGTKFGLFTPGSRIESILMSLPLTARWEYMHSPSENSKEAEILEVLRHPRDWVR

Compound: Nc1ncnc2c1ncn2[C@@H]1O[C@H](COP(=O)(O)OP(=O)(O)OP(=O)(O)O)[C@@H](O)[C@H]1O [adenosine triphosphate]
Experiment: NP40-soluble protein abundance relative to vehicle (solubility fold change) (ratio); higher = more soluble protein in presence of ATP
Summary of the method: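 Data come from three independent experiments in which Dounce-homogenised Jurkat crude lysate was treated at eight concentrations from 0.1 to 10 mM. Treatment ran 10 min at room temperature and then 3 min at 37 °C, after which 0.8% NP40 and benzonase were added for 60 min at 4 °C before ultracentrifugation. The supernatant underwent TMT labelling and LC-MS/MS, and vsn-normalised intensities were expressed as fold change against the detergent-processed vehicle in each replicate.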

Target	NP40-soluble protein abundance (concentration: 1mM)	NP40-soluble protein abundance (concentration: 2mM)	NP40-soluble protein abundance (concentration: 4mM)	NP40-soluble protein abundance (concentration: 6mM)	NP40-soluble protein abundance (concentration: 8mM)	NP40-soluble protein abundance (concentration: 10mM)
UniProt P50851 and related entries	1.02 ± 0.048	0.998 ± 0.029	0.995 ± 0.03	0.947 ± 0.031	0.985 ± 0.015	0.966 ± 0.025
MLH1 (UniProt P40692)	1.28 ± 0.03	1.31 ± 0.032	1.32 ± 0.015	1.31 ± 0.039	1.33 ± 0.046	1.3 ± 0.086
UniProt P43155 and related entries	0.999 ± 0.072	0.994 ± 0.072	1.01 ± 0.076	0.94 ± 0.14	1.02 ± 0.064	0.989 ± 0.022
UniProt P45984 and related entries	0.981 ± 0.083	0.9967 ± 0.0064	1 ± 0.099	0.972 ± 0.022	1.01 ± 0.083	0.956 ± 0.049
CAPG (UniProt P40121)	0.993 ± 0.032	0.985 ± 0.035	0.948 ± 0.033	0.994 ± 0.032	0.944 ± 0.034	0.952 ± 0.024
NSF (UniProt P46459)	1.03 ± 0.03	0.999 ± 0.02	0.9712 ± 0.0089	0.987 ± 0.035	0.99 ± 0.042	0.976 ± 0.047
FASN (UniProt P49327)	1.04 ± 0.11	0.991 ± 0.07	0.987 ± 0.064	0.911 ± 0.066	1.02 ± 0.02	0.988 ± 0.038
UniProt P52333 and related entries	1.0769 ± 0.00054	1.02 ± 0.04	1 ± 0.039	1.03 ± 0.026	1.03 ± 0.028	1.05 ± 0.042
SSR4 (UniProt P51571)	1.02 ± 0.048	1.02 ± 0.044	0.992 ± 0.066	0.972 ± 0.082	1.01 ± 0.071	0.983 ± 0.035
UniProt P41743	1.02 ± 0.064	1.04 ± 0.065	0.999 ± 0.067	0.952 ± 0.06	1.01 ± 0.088	1.01 ± 0.13
RPL3 (UniProt P39023)	1.02 ± 0.049	0.95 ± 0.046	0.958 ± 0.067	0.9 ± 0.067	0.863 ± 0.094	1 ± 0.07
MCM2 (UniProt P49736)	1.01 ± 0.066	0.952 ± 0.053	0.925 ± 0.051	0.921 ± 0.044	0.951 ± 0.045	0.924 ± 0.052
UniProt P49589 and related entries	1.012 ± 0.0024	0.975 ± 0.023	0.947 ± 0.025	0.977 ± 0.024	0.962 ± 0.032	0.944 ± 0.025
NUP62 (UniProt P37198)	0.994 ± 0.044	1 ± 0.037	0.985 ± 0.036	1.03 ± 0.029	0.999 ± 0.055	0.995 ± 0.06
P42166 and related entries (UniProt H0YJH7+P42167+P42166)	1.09 ± 0.035	1.08 ± 0.021	1.05 ± 0.026	1.11 ± 0.035	1.05 ± 0.036	1.05 ± 0.017
CCNH (UniProt P51946)	0.99 ± 0.073	1.04 ± 0.096	1.01 ± 0.14	0.987 ± 0.098	1.03 ± 0.034	1.01 ± 0.12
UniProt P40337-2|P40337-3	0.894 ± 0.077	0.919 ± 0.053	0.868 ± 0.052	0.847 ± 0.073	0.878 ± 0.13	0.854 ± 0.14
NUP153 (UniProt P49790)	0.948 ± 0.04	0.954 ± 0.014	0.948 ± 0.015	1.03 ± 0.033	1 ± 0.012	1.033 ± 0.0093

Target	NP40-soluble protein abundance (concentration: 1mM)	NP40-soluble protein abundance (concentration: 2mM)	NP40-soluble protein abundance (concentration: 4mM)	NP40-soluble protein abundance (concentration: 6mM)	NP40-soluble protein abundance (concentration: 8mM)	NP40-soluble protein abundance (concentration: 10mM)
UniProt P45974 and related entries	0.995 ± 0.01	0.981 ± 0.02	0.957 ± 0.021	0.983 ± 0.029	0.953 ± 0.052	0.94 ± 0.035
UniProt P45983-3|P45983-4	1.03 ± 0.051	1.04 ± 0.079	1.02 ± 0.093	1 ± 0.064	1.01 ± 0.072	0.99 ± 0.039
GDI2 (UniProt P50395)	1 ± 0.087	0.987 ± 0.053	0.967 ± 0.063	0.941 ± 0.086	0.975 ± 0.04	0.968 ± 0.049
GCLC (UniProt P48506)	1.03 ± 0.064	0.993 ± 0.067	0.996 ± 0.06	0.973 ± 0.1	1.02 ± 0.052	0.983 ± 0.057
SERPINB8 (UniProt P50452)	0.986 ± 0.067	0.984 ± 0.064	0.944 ± 0.048	0.948 ± 0.079	0.967 ± 0.054	0.965 ± 0.076
PBX2 (UniProt P40425)	0.979 ± 0.059	1.01 ± 0.11	0.969 ± 0.071	0.987 ± 0.069	0.945 ± 0.074	0.925 ± 0.078
CETN2 (UniProt P41208)	0.833 ± 0.2	0.864 ± 0.16	0.853 ± 0.14	0.857 ± 0.19	0.816 ± 0.1	0.767 ± 0.17
UniProt P52209 and related entries	0.952 ± 0.051	0.954 ± 0.05	0.918 ± 0.03	0.924 ± 0.075	0.921 ± 0.051	0.933 ± 0.04
UniProt P51149	0.99 ± 0.08	0.976 ± 0.083	0.938 ± 0.053	0.932 ± 0.12	0.961 ± 0.084	0.939 ± 0.066
PAFAH1B1 (UniProt P43034)	0.992 ± 0.055	1.01 ± 0.063	0.975 ± 0.03	0.96 ± 0.069	0.976 ± 0.026	0.983 ± 0.053
CDKN2C (UniProt P42773)	0.893 ± 0.098	0.922 ± 0.14	0.888 ± 0.075	0.897 ± 0.1	0.839 ± 0.052	0.815 ± 0.11
TAGLN2 (UniProt P37802)	0.862 ± 0.056	0.893 ± 0.021	0.877 ± 0.036	0.862 ± 0.016	0.861 ± 0.021	0.84 ± 0.048
UniProt P36639 and related entries	0.989 ± 0.028	0.966 ± 0.049	0.939 ± 0.025	0.983 ± 0.056	0.96 ± 0.047	0.948 ± 0.045
UniProt P48059 and related entries	1 ± 0.067	1.02 ± 0.09	1.01 ± 0.1	0.983 ± 0.071	1.03 ± 0.059	0.989 ± 0.044
CPOX (UniProt P36551)	1.01 ± 0.035	0.995 ± 0.037	1.03 ± 0.071	0.954 ± 0.092	1.01 ± 0.011	1.03 ± 0.066
RBM5 (UniProt P52756)	1.054 ± 0.0081	1.04 ± 0.065	1.11 ± 0.052	1.13 ± 0.094	1.16 ± 0.045	1.18 ± 0.071
UniProt P40855 and related entries	0.902 ± 0.16	0.893 ± 0.19	0.903 ± 0.096	0.924 ± 0.19	0.807 ± 0.09	0.81 ± 0.16

For convenience, some entries already given.
Target	NP40-soluble protein abundance (concentration: 1mM)	NP40-soluble protein abundance (concentration: 2mM)	NP40-soluble protein abundance (concentration: 4mM)	NP40-soluble protein abundance (concentration: 6mM)	NP40-soluble protein abundance (concentration: 8mM)	NP40-soluble protein abundance (concentration: 10mM)
RBM5 (UniProt P52756)	1.054 ± 0.0081	1.04 ± 0.065	1.11 ± 0.052	1.13 ± 0.094	1.16 ± 0.045	1.18 ± 0.071
UniProt P40855 and related entries	0.902 ± 0.16	0.893 ± 0.19	0.903 ± 0.096	0.924 ± 0.19	0.807 ± 0.09	0.81 ± 0.16
